Source: PubChem BioAssay AID1688 (National Center for Advancing Translational Sciences (NCATS), 2009)
In all, about 220,000 compounds went through this assay and about 2,400 (1.1%) were called active. The shares of active, inactive and inconclusive entries below differ from those in the screen. The call rests on the fitted dose curve; in most records, active means well fitted inhibition curve with a large enough effect; inconclusive means small, poorly fitted or top-dose-only effect, or effect the other way; inactive means no such curve, though single readings can be large or run the other way. Potencies beside an inconclusive call are fits to weak or partial responses and may not hold up.

assay: qHTS Multiplex Assay to Identify Dual Action Probes in a Cell Model of Huntington: Aggregate Formation (GFP); details: PC12 HttQ103-GFP aggregates, Acumen cytometry, 40 h; series mostly up to 46.1 µM; further: nearly all actives have a fitted effect of over 60% in size
In short: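 Quantitative HTS on tebufenozide-induced (100 nM) PC12 cells stably expressing polyQ103 Huntingtin exon 1–GFP. Reduction of bright GFP aggregates, detected by laser scanning cytometry after lysis, identified actives across the titration.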
Potency means the concentration at half of the fitted maximal effect.

With `O=C(c1ccc([N+](=O)[O-])cc1)N1CCC(Cc2ccccc2)CC1` as the molecule, how does the Potency read?
Its Potency is inconclusive: 14.1 µM [inhibitor, single point].

For `CO/N=C/c1ccc(N2CCN(C(=O)c3ccc(C)cc3)CC2)c([N+](=O)[O-])c1`, which Potency is on record?
The Potency was inconclusive: 25.1 µM [inhibitor, single point].

Which Potency does the source give for `N#CCCNCC1(c2ccccc2)CCCC1` here?
Its Potency is inconclusive: 1.26 µM [activator, full curve].

With `CN(C)NC1CCS(=O)(=O)C1` (stereo unspecified) as the molecule, how does the Potency read?
Its Potency is “inactive”.

Which Potency does the source give for `COc1ccc(N2CCN(C(=O)C3CCN(S(=O)(=O)N4CCOCC4)CC3)CC2)cc1` here?
The Potency was inconclusive: 10 µM [inhibitor, partial curve].

For `Cc1ccc(NC(=S)NNC(=O)c2ccccc2OC(F)F)cc1`, which Potency is on record?
The Potency was inconclusive: 35.5 µM [inhibitor, single point].

With `CCOC(=O)c1[nH]c2cc(OC)c(OC)cc2c1NC(=O)C(C)N1CCN(Cc2ccccc2)CC1` (stereo unspecified) as the molecule, how does the Potency read?
Its Potency is inconclusive: 35.5 µM [activator, single point].

Which Potency does the source give for `COc1ccc(C(=O)N2CCN(c3nc4cc(C)ccc4cc3C#N)CC2)c(OC)c1` here?
The Potency was inconclusive: 35.5 µM [inhibitor, single point].

For `COC(=O)c1ccc(C(=O)OC)c(NC(=O)CN(c2ccccc2)S(=O)(=O)N(C)C)c1`, which Potency is on record?
Its Potency is inconclusive: 0.631 µM [inhibitor, single point].

Which Potency does the source give for `CC(C)(C)c1ccc(C2CC2C(=O)N/N=C\c2ccc[nH]2)cc1` (stereo unspecified) here?
The Potency was active: 2.51 µM.

Which Potency does the source give for `O=C(CSc1ncccn1)NN=C1CCCCCC1` here?
Its Potency is inconclusive: 3.98 µM [inhibitor, single point].

With `C=C(C)COc1ccc(-c2[nH]ncc2Oc2cccc(OC)c2)c(O)c1` as the molecule, how does the Potency read?
Its Potency is inconclusive: 35.5 µM [inhibitor, single point].

For `N#Cc1cccc2cnccc12`, which Potency is on record?
The Potency was inconclusive: 35.5 µM [inhibitor, single point].

Which Potency does the source give for `Cc1c(C(C)C)c(=O)n(-c2ccc(S(=O)(=O)NCc3ccccc3)cc2)n1C` here?
The Potency was inconclusive: 1.12 µM [inhibitor, full curve].

Which Potency does the source give for `O=C/C(=C\Nc1ccc(Cl)cn1)c1nc2ccccc2o1` here?
Its Potency is “inactive”.

Which Potency does the source give for `CCc1ccc(/C=C(/C#N)C(N)=S)s1` here?
Its Potency is “inactive”.

For `CCC(CC)c1nc2cc(OC)c(OC)cc2c(=O)o1`, which Potency is on record?
The Potency was inconclusive: 1.26 µM [inhibitor, single point].

With `c1ccc(CN(Cc2ccccc2)c2nn[nH]n2)cc1` as the molecule, how does the Potency read?
The Potency was “inactive”.

For `COC(=O)CSc1nc2c(c(=O)n(C)c(=O)n2C)n1CCC(C)C`, which Potency is on record?
Its Potency is “inactive”.

With `COc1cc(OC)nc(-n2ncc(Br)c(Br)c2=O)n1` as the molecule, how does the Potency read?
Its Potency is active: 4.47 µM.

For `Clc1ccc2c(c1)c1cc(Cl)ccc1n2CN1CCOCC1`, which Potency is on record?
Its Potency is inconclusive: 25.1 µM [inhibitor, single point].
